# Assay results as given in patent publication US20230050846A1 (LIFESEARCH, priority 2019, published 2023).
# Test: peptide made by a vendor (Fmoc solid-phase peptide synthesis)
# Settings: whole synthesis, acetate salts (Formula (I)-(IV)); trifluoroacetate salt (His-tag and biotin variants)
sequence,measurement,value
GSDQSENVDRGAGSIREAGGAFGKREQAEEERYFRAQSREQLAALKKHHEEEIVHHKKEIERLQKEIERHKQKIKMLKHDD,final purity (method not given),>80%

# Where a sequence shows no end group, the ends are not given.
